In all, about 340,000 compounds went through this assay and about 170 (0.05%) were called active. The inconclusive results got no clear call from the source; some entries with a clear call stand among them for comparison. The call rests on the fitted dose curve; in most records, active means well fitted inhibition curve with a large enough effect in the signal ratio, with a control signal flat (not every such curve was filed as active); inconclusive means small, poorly fitted or top-dose-only effect, or effect the other way, or a change in a side signal; inactive means flat fitted curve, though single readings scatter; the % refers to the signal ratio. Potencies of inconclusive entries are doubtful fits and often do not repeat.
Assay: qHTS Assay to Find Inhibitors of Chronic Active B-Cell Receptor Signaling;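 on activity change, negative = inhibition: plate controls were basal doxycycline-induced cells for no effect and cells given 10 µM MG132 for full effect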
Settings: ABC-DLBCL IkBa-CBG/CBR reporter, luminescence ratio (green luciferase fused to IkBa over red control in TMD8 lymphoma cells), 4 h; activity change, negative = inhibition: at 46.1 µM (top of the series)
How it was run: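 Compounds up to 46 uM were incubated four hours with TMD8 cells whose green CBG68 luciferase is fused to IkappaBalpha; red CBR luminescence normalised the signal, and concentration-effect curves were fitted to fusion, red and ratio data.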
Potency means the concentration at half of the fitted maximal effect.

SMILES	activity change, negative = inhibition	Potency
OCCN1CCN(c2nc(-c3ccccc3)nc3c2oc2ccccc23)CC1	inconclusive: -10%	–
COc1cccc(/C(C)=N/NC(=O)c2ccc(N(C)C)cc2)c1	–	inconclusive: 11.2 µM [falling, partial curve, poor fit]
O=C(Nc1ccc(Br)cn1)c1ccc2ccccc2c1	–	inconclusive: 22.4 µM [falling, single point]
CSc1nc(C)c(CCOC(=O)c2ccccc2)c(=O)[nH]1	inconclusive: 2.23%	–
CCOc1ccc2nc(-c3ccccc3)[nH]c2c1	–	inconclusive: 17.8 µM [falling, partial curve]
COC(=O)c1ccc(COc2ccccc2/C=N/NS(=O)(=O)c2ccccc2)cc1	–	inconclusive: 35.5 µM [falling, single point]
Cn1c(CCN2CCCCC2)nc2cc(NS(=O)(=O)c3ccc(F)cc3)ccc21	–	inconclusive: 35.5 µM [falling, single point]
Cc1cccc(C(=O)Nc2oc(-c3ccccc3)cc2C#N)c1	inconclusive: 7.03%	–
CC(=O)c1c(C)[nH]c(=S)c(C#N)c1-c1ccc(Cl)cc1	–	inconclusive: 17.8 µM [rising, partial curve, poor fit]
Cc1nnc(SCC(=O)NC(C)(C)C)n1CCc1ccccc1	inconclusive: 15.2%	–
COc1ccc(-c2nnc3n2N=C(C)CS3)cc1	inactive: 5.35%	–
CCN(CC)C(=O)c1sc2nc(N3CCOCC3)c3c(c2c1N)CCCC3	–	inconclusive: 25.9 µM [falling, partial curve, poor fit]
O=C(CC(Nc1cccc(Cl)c1Cl)C(=O)OCC(=O)c1cccs1)c1ccccc1 (stereo unspecified)	inconclusive: 11.9%	–
CC(=O)Nc1cccc(OCC(=O)/C=C2\N(C)c3ccccc3C2(C)C)c1	inconclusive: -19.6%	–
CC1=NN(c2ccccc2)C(=O)/C1=C\N(O)c1ccccc1	inconclusive: 4.61%	–
CCN(CC)C(=O)Oc1ccc2oc(=O)cc(-c3cc4cccc(OC)c4o3)c2c1	inactive: -17.7%	–
CCCC(=O)NC(=S)Nc1ccc(Cl)cn1	–	inconclusive: 28.2 µM [cytotoxic, single point]
O=C(OCc1c(-c2ccccc2)ncc2ccccc12)c1ccccc1C(F)(F)F	–	inconclusive: 20.6 µM [falling, partial curve, poor fit]
COc1ccc(NC(=O)CN(C)C2CCCCC2)cc1Cl	inactive: -14%	–
CC1CCCN(c2nc(NCc3ccco3)nc(N)c2[N+](=O)[O-])C1 (stereo unspecified)	inconclusive: 1.33%	–
Cc1cc(C)c(OCCCCCn2ccnc2)c(C)c1	inconclusive: 3.06%	–
Cc1ccc(NC(=S)N(CCCN2CCOCC2)Cc2ccco2)cc1C	inconclusive: -8.02%	–
O=C(NCCCN1CCCC1)c1cc2c(Cl)nc3ccccc3c2s1	inconclusive: 1.43%	–
C[C@H]1CN([C@@H](C)CO)C(=O)Cc2cc(NC(=O)C3CC3)ccc2O[C@H]1CN(C)Cc1ccc(Oc2ccccc2)cc1	inconclusive: -1.49%	–
COc1ccccc1OCC(=O)Nc1sc2c(c1C(N)=O)CCC2	inconclusive: -7.97%	–
COc1cc(/C=C2\SC(=O)N(CC(=O)Nc3ccc(C)cc3)C2=O)cc(Cl)c1OCC(=O)O	inconclusive: 4.52%	–

SMILES	activity change, negative = inhibition	Potency
O=C(c1ccccc1)N1CCN(c2ncnc3sc4c(c23)CCC4)CC1	inconclusive: -20.8%	–
CC1(c2ccc([N+](=O)[O-])cc2)NC(=O)N(CC(=O)Nc2ccc(N3CCCCC3)cc2)C1=O (stereo unspecified)	inactive: 2.61%	–
O=C(c1ccccc1)c1ccc2ccccc2n1	inconclusive: -3.73%	–
COc1ccc(C(=O)/C=C/c2ccc(-c3ccccc3)cc2)cc1CSCC(=O)O	–	inconclusive: 12.6 µM [falling, partial curve]
c1ccc(-c2nc(-c3ccccn3)nc(-c3ccccn3)n2)nc1	inactive: -2.07%	–
c1ccc(Cn2nc(-c3ccccc3)nc2-c2ccccc2)cc1	inconclusive: 8.3%	–
CCCN(CCC)CCCNc1ccc(C(=O)Nc2cccc(OC)c2)cc1[N+](=O)[O-]	–	inconclusive: 3.16 µM [falling, partial curve, poor fit]
COc1ccccc1C(c1nnnn1C(C)(C)C)N1CCCCCC1 (stereo unspecified)	inconclusive: 3%	–
CCCCCCSc1cccc(-c2nc3ccc(C)cn3c2NCc2ccccc2)c1	inactive: 0.436%	–
Cc1cc(C(F)F)n2ncc(C(=O)NCc3ccc(F)cc3)c2n1	–	inconclusive: 3.55 µM [falling, full curve]
COc1cccc(OCCn2c(C)c(/C=N/n3cnnc3)c3ccccc32)c1	–	inconclusive: 5.62 µM [falling, partial curve, poor fit]
O=C(O)CCCN=Cc1c(O)c2ccccc2oc1=O	–	inconclusive: 10 µM [falling, partial curve, poor fit]
O=C1N=c2ccccc2=C1c1c(O)n(-c2cccc(F)c2)[nH]c1=O	–	inconclusive: 18.4 µM [falling, single point]
N#C/C(=C/c1ccc(O)c(O)c1)C(=O)NCc1ccc(Cl)cc1	inconclusive: 4.03%	–
COc1ccc(CN(C)C(=O)C(Cc2ccccc2)NC(=O)c2ccccc2)c(OC)c1 (stereo unspecified)	–	inconclusive: 7.31 µM [falling, partial curve, poor fit]
COC(=O)Cc1[nH]nc2c1C1(CCSCC1)C(C#N)=C(N)O2	inconclusive: 1.82%	–
CC(C)C(=O)c1cn(CC(=O)NCc2ccco2)c2ccccc12	inconclusive: 15.7%	–
O=C(NCc1ccccn1)c1ccccc1-c1ccccc1	inconclusive: 9.77%	–
COC(=O)c1ccc(COc2ccc(F)cc2)o1	inconclusive: 6.14%	–
OCCNc1nc(N2CCCCC2)nc2ccccc12	inactive: 0.11%	–
O=c1cc(Nc2ccc3c(c2)OCCO3)[nH]c(=O)n1C1CCCCC1	inactive: 2.75%	–
COc1ccc(N/C=C\C(=O)c2ccc3c(c2)OCO3)cc1	–	inconclusive: 29.1 µM [falling, single point]
O=C(CNC(=O)C12CC3CC(CC(C3)C1)C2)OCc1ccc(F)cc1Cl	inactive: 5.97%	–
CN(C)c1ccc(/C=C/C(=O)c2ccc(O)cc2)cc1[N+](=O)[O-]	–	inconclusive: 11.2 µM [falling, partial curve]
CC(C)NC(=O)c1c2c(nc3ccccc13)CCCC2	inconclusive: 10.4%	–
COc1cccc(C(=O)c2sc(NC(C)C)nc2N)c1	–	inconclusive: 3.26 µM [rising, full curve]

Taken from above:
activity change, negative = inhibition, COC(=O)c1ccc(COc2ccc(F)cc2)o1 reads inconclusive: 6.14%
Potency, O=C1N=c2ccccc2=C1c1c(O)n(-c2cccc(F)c2)[nH]c1=O reads inconclusive: 18.4 µM [falling, single point]

Further entries.

SMILES	activity change, negative = inhibition	Potency
COc1cc2c(cc1NC(=O)C(C)NCc1ccccc1)oc1ccccc12 (stereo unspecified)	–	inconclusive: 4.61 µM [rising, full curve, poor fit]
CCC(Nc1nc(-c2ccccc2)nc2ccccc12)C(=O)O (stereo unspecified)	inconclusive: -0.146%	–
O=C(O)CSCC(=O)Nc1ccc(C(=O)O)cc1	inconclusive: -19.2%	–
CN1CCN(S(=O)(=O)c2cccc(C(=O)N(Cc3nnc(-c4ccc(Cl)cc4)o3)C3CC3)c2)CC1	inactive: 1.32%	–
CN(C)c1ccc(/C=C/C(=O)c2cccc(Br)c2)cc1	inconclusive: 5.18%	–
CC(NC(=O)OCc1ccccc1)C(=O)Oc1cc2oc(=O)cc(-c3ccccc3)c2cc1Cl (stereo unspecified)	–	inconclusive: 8.2 µM [rising, partial curve, poor fit]
O=C(NCCc1csc(-c2cccnc2)n1)c1ccc(Cl)cc1	inactive: -2.5%	–
O=C(O)c1[nH]c2ccccc2c1C(c1cc(Br)ccc1O)c1c(C(=O)O)[nH]c2ccccc12	inconclusive: 8.17%	–
CCOC(=O)Cc1csc(NC(=S)NC(=O)c2ccc(C)cc2)n1	–	inconclusive: 4.11 µM [cytotoxic, partial curve]
NCCNC(=O)Cc1cccc(NC(=O)Cc2ccc(Nc3ncnc4c3ncn4[C@@H]3O[C@H](CO)[C@@H](O)[C@H]3O)cc2)c1	–	inconclusive: 4.47 µM [falling, partial curve, poor fit]
CC1(C)Cc2c(cnn2-c2ccccc2)C(NC(=O)c2ccoc2)C1 (stereo unspecified)	inconclusive: 9.43%	–
COc1cc(NC(=O)c2ccccc2[N+](=O)[O-])ccc1NC(=O)C(C)C	inconclusive: -6.77%	–
CCOc1ccccc1NC(=O)CN(c1ccc(OC)cc1)S(=O)(=O)c1c(C)noc1C	–	inconclusive: 12.6 µM [falling, partial curve]
CCCC[C@]12Cc3cc(C#N)ccc3C(O1)c1c(cc(-c3ccccc3)oc1=O)O2	–	inconclusive: 6.31 µM [rising, single point]
O=C(Nc1ccccn1)c1cc2ccccc2o1	–	inconclusive: 29.1 µM [rising, single point]
Cc1ccnc(NC(=O)c2ccc(S(=O)(=O)NCc3ccco3)cc2)c1	inconclusive: -5.13%	–
Cc1ccc(Cl)cc1NC(=O)C[n+]1ccc(Cc2ccc([N+](=O)[O-])cc2)cc1	inactive: 14.4%	–
C=CCNC(=O)c1c2c(nc3ccccc13)-c1ccccc1CC2	inconclusive: 12.3%	–
Cc1cccc(CS(=O)(=O)c2ncc(Cl)c(C(=O)Nc3ccc(F)cc3)n2)c1	inconclusive: 19%	–
CCCN1CCN(C(=O)c2ccc(-c3ccc([N+](=O)[O-])cc3)o2)CC1	inconclusive: 6.57%	–
COc1cc(-c2cc(C(=O)Nc3c(Cl)cc(Cl)cc3Cl)c3ccccc3n2)cc(OC)c1OC	inactive: -0.384%	–
CC(=O)Nc1ccc(C=NNC(=O)c2ccc(NS(=O)(=O)c3cccs3)cc2)cc1	–	inconclusive: 23.1 µM [falling, partial curve]
COc1ccc(C2SCC(=O)N2CCCN(C)C)cc1 (stereo unspecified)	inconclusive: -20.4%	–
Cc1cccc(NC(=O)CSCC(=O)Nc2cc(Cl)ccc2N2CCOCC2)c1	inconclusive: -28.4%	–

Source: PubChem BioAssay AID493014 (National Center for Advancing Translational Sciences (NCATS), 2011)
